# ± gives the standard deviation of the averaged measurements. Single values of this set are uncertain.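 Every well combined ERalpha-negative HeLa cells, transfected ERalpha, a two-estrogen-response-element reporter, and overexpression of a single poorly characterized human cDNA. Any gene lowering the signal to at most the BRCA1 positive control level, about 0.6 of empty vector, was called a repressor hit.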
# System: ERE-luciferase reporter with exogenous ERalpha in HeLa cells
# Test: relative ERE luciferase activity (Firefly/Renilla) upon cDNA overexpression, relative to empty vector (fold of empty vector); higher = stronger ERalpha transactivation (less repression)
# Settings: 17beta-estradiol: 10 nM; 12 h
row,Sequence,relative ERE luciferase activity
1,MDRGSLLPFQLWCPRPFGTYSQNQPRPPSAALKPSACPEPGGGAEPDHGPAHSENTPPALATEVPASQPAPLLSAAAAGDEGRVLLDTWYVIKPGNTKEKVAFFVAHQCGGGSRASSMKVKGHWGSDSSKAKRRRRCLDPTKAPPDPGGREGPPAAEEGPASAGEDVDLLSVAEMVALVEQRAALALQSYPRPTTPAPVVFVSAEQGGPAKGVGSERRSGGGDCSRVAEAVAHFEAQRDSPPTKGLRKEERPGPGPGEVRIAFRISNGREPRAPDSGLPSGGGGRPGCAYPGSPGPGARAKDKITCDLYQLISPSRDALPSNVEFLLARADEASEGDSPAPARPEDTPPAPPPPPARDCGASGFHVDVVVTGVVDECIFFGKDGTKNVKEETVCLTVSPEEPPPPGQLFFLQNRGPDGPPEPPPADSPATAPGPDDAEGTADTSLCRLYRHVSHDFLEIRFKIQRLLEPRQYMLLLPEHVLVKIFSFLPTRALAALKCTCHHFKGIIEAFGVRATDSRWSRDPLYRDDPCKQCRKRYEKGDVSLCRWHPKPYHHDLPYGRSYWMCCRRADRETPGCRLGLHDNNWVLPCNGPGGGRAGREEGR [FBXO46],1.1
2,MDRTLESLRHIIAQVLPHRDPALVFKDLNVVSMLQEFWESKQQQKAAFPSEGVVVYESLPAPGPPFVSYVTLPGGSCFGNFQCCLSRAEARRDAAKVALINSLFNELPSRRITKEFIMESVQEAVASTSGTLDDADDPSTSVGAYHYMLESNMGKTMLEFQELMTIFQLLHWNGSLKALRETKCSRQEVISYYSQYSLDEKMRSHMALDWIMKERDSPGIVSQELRMALRQLEEARKAGQELRFYKEKKEILSLALTQICSDPDTSSPSDDQLSLTALCGYH [LIX1],1.16
3,MDSKYQCVKLNDGHFMPVLGFGTYAPAEVPKSKALEATKLAIEAGFRHIDSAHLYNNEEQVGLAIRSKIADGSVKREDIFYTSKLWCNSHRPELVRPALERSLKNLQLDYVDLYLIHFPVSVKPGEEVIPKDENGKILFDTVDLCATWEAVEKCKDAGLAKSIGVSNFNRRQLEMILNKPGLKYKPVCNQVECHPYFNQRKLLDFCKSKDIVLVAYSALGSHREEPWVDPNSPVLLEDPVLCALAKKHKRTPALIALRYQLQRGVVVLAKSYNEQRIRQNVQVFEFQLTSEEMKAIDGLNRNVRYLTLDIFAGPPNYPFSDEY [AKR1C1],1.06
4,MDSPSSVSSYSSYSLSSSFPTSPVNSDFGFPSDSEREDKGAHGPRPDTVGQRGGSRPSPGPIRCRHRSKVSGNQHTPSHPKQRGSASPMAGSGAKRSRDGELETSLNTQGCTTEGDLLFAQKCKELQGFIPPLTDLLNGLKMGRFERGLSSFQQSVAMDRIQRIVGVLQKPQMGERYLGTLLQVEGMLKTWFPQIAAQKSSLGGGKHQLTKHFPSHHSDSAASSPASPMEKMDQTQLGHLALKPKQPWHLTQWPAMNLTWIHTTPICNPPLSSPGTISFSHGPLGTGTGIGVILFLQHGVQPFTHSAPTTPVPPTTASPVIPGEPMKLSGEGPRCYSLPVTLPSDWSYTLSPPSLPTLARKMTIGHREQQRSHPPVAADAHLLNL [C1orf51],1.03
5,MDSPWDELALAFSRTSMFPFFDIAHYLVSVMAVKRQPGAAALAWKNPISSWFTAMLHCFGGGILSCLLLAEPPLKFLANHTNILLASSIWYITFFCPHDLVSQGYSYLPVQLLASGMKEVTRTWKIVGGVTHANSYYKNGWIVMIAIGWARGAGGTIITNFERLVKGDWKPEGDEWLKMSYPAKVTLLGSVIFTFQHTQHLAISKHNLMFLYTIFIVATKITMMTTQTSTMTFAPFEDTLSWMLFGWQQPFSSCEKKSEAKSPSNGVGSLASKPVDVASDNVKKKHTKKNE [TMEM38B],1.07
6,MDSRLQEIRERQKLRRQLLAQQLGAESADSIGAVLNSKDEQREIAETRETCRASYDTSAPNAKRKYLDEGETDEDKMEEYKDELEMQQDEENLPYEEEIYKDSSTFLKGTQSLNPHNDYCQHFVDTGHRPQNFIRDVGLADRFEEYPKLRELIRLKDELIAKSNTPPMYLQADIEAFDIRELTPKFDVILLEPPLEEYYRETGITANEKCWTWDDIMKLEIDEIAAPRSFIFLWCGSGEGLDLGRVCLRKWGYRRCEDICWIKTNKNNPGKTKTLDPKAVFQRTKEHCLMGIKGTVKRSTDGDFIHANVDIDLIITEEPEIGNIEKPVEIFHIIEHFCLGRRRLHLFGRDSTIRPGWLTVGPTLTNSNYNAETYASYFSAPNSYLTGCTEEIERLRPKSPPPKSKSDRGGGAPRGGGRGGTSAGRGRERNRSNFRGERGGFRGGRGGAHRGGFPPR [KIAA1627],1 ± 0.14
7,MDSSREPTLGRLDAAGFWQVWQRFDADEKGYIEEKELDAFFLHMLMKLGTDDTVMKANLHKVKQQFMTTQDASKDGRIRMKELAGMFLSEDENFLLLFRRENPLDSSVEFMQIWRKYDADSSGFISAAELRNFLRDLFLHHKKAISEAKLEEYTGTMMKIFDRNKDGRLDLNDLARILALQENFLLQFKMDACSTEERKRDFEKIFAYYDVSKTGALEGPEVDGFVKDMMELVQPSISGVDLDKFREILLRHCDVNKDGKIQKSELALCLGLKINP [SCGN],1.07
8,MDVENEQILNVNPADPDNLSDSLFSGDEENAGTEEIKNEINGNWISASSINEARINAKAKRRLRKNSSRDSGRGDSVSDSGSDALRSGLTVPTSPKGRLLDRRSRSGKGRGLPKKGGAGGKGVWGTPGQVYDVEEVDVKDPNYDDDQENCVYETVVLPLDERAFEKTLTPIIQEYFEHGDTNEVAEMLRDLNLGEMKSGVPVLAVSLALEGKASHREMTSKLLSDLCGTVMSTTDVEKSFDKLLKDLPELALDTPRAPQLVGQFIARAVGDGILCNTYIDSYKGTVDCVQARAALDKATVLLSMSKGGKRKDSVWGSGGGQQSVNHLVKEIDMLLKEYLLSGDISEAEHCLKELEVPHFHHELVYEAIIMVLESTGESTFKMILDLLKSLWKSSTITVDQMKRGYERIYNEIPDINLDVPHSYSVLERFVEECFQAGIISKQLRDLCPSRGRKRFVSEGDGGRLKPESY [PDCD4],1.08
9,MDWDDEYSHNSFDLHCLLNSFPGDLEFEQIFSDIDEKIEQNAASIKHCIKEIQSEINKQCPGVQLQTTTDCFEWLTNYNYSTSESSFISHGDLIKFFKTLQDLLKNEQNQEEMTLDLLWDLSCHSSVSFPSTLSGTSFHFLSRTSLHSVEDNSSMDVKSMWDDIRLHLRRFLVSKLQSHNEINNSQQKILLKKQCLQQLLFLYPESEVIIKYQNIQNKLLANLLWNCFPSYNRDSNLDVIAHGYQSTMLKLYSVIKEDFNTLCEILAPSSMVKFIKETYLDTVTEEMAKFLENFCELQFRENAVRVVKTSKSSSKHRGAVHALVTTECPQKGRNFSLPLDKVEFLSQLIKSFMKLEKGVQELFDEILLSLKITRDTSGILEKSDREVVMEKPRANETNIPSEQSLPGKEATLLDFGWRSAFKEVSLPMAHCVVTAIEGFSTKILQQEQNERSSAVSYAMNLVNVQQVWQDSHMFPEEEQPKKIGKFCSDIMEKLDTMLPLALACRDDSFQEIRANLVEACCKVATAVLQRLQERAKEVPSKAPLKNLHTYLSTAVYVFQHFKRYDNLMKEMTKKPIFLVLVQRYQEFINTLQFQVTNYCVRVCATSILQDAESHHWDDYKAFYEGERCSFSIQMWHYFCWSLHYDLWTILPPKLAQEILVEVLEKSLSLLASRYARAHPSRKRTPQLRLDVTTILICTENMLWSVCTSVQKLLNPHQHTDDKIFKIHTHCNNLFTTLVILTSPLTELYKTFQHGLDESASDSLKSFFKQPLYWVSCISHFYPSLLRTPSAGGLKAEGQLKLLLSQPRCNWNLLLETLLHHDGLLLRILLKSSKQVSDTENNLNQGPSLMEAIFKILYHCSFSPQTFANVFVSYMEEEQLWDFLYNIPVSTCVEYELEVIRCLRLALTDAIKDTVQQIVSVMSSRRNCETNLNKHIVPDCLLESMPKEWNYSPKETNRKESCKSFTRLTAQAVSIVISKLPTVIACLPPPVKYFFFLSERKMSKKFVELKKAGLLVWNLIVIICRIFEDGNTVELLTGASLDRWSKEKLGLICMCLKSIMGDQTSIHNQMIQKVIQSIEQQKPNWIERQLLKARKLSTECAFMTIEKSTALQEGDVALELTEQKINTMVLDLCHKPGGREYLRQIYHIMQLNEEYLKEQLFSMNSSEEKPLPIRPLKTTLRSIEDQPSAFNPFHVYKAFSENMLDQSAITKWNWNWAKLLPNYLRLDKMTFSVLLKNRWEMKKDETLEEEEKAILEHLKQICTPQNSSASDNIEEQ [C5orf36],1
10,MEAAAEPGNLAGVRHIILVLSGKGGVGKSTISTELALALRHAGKKVGILDVDLCGPSIPRMLGAQGRAVHQCDRGWAPVFLDREQSISLMSVGFLLEKPDEAVVWRGPKKNALIKQFVSDVAWGELDYLVVDTPPGTSDEHMATIEALRPYQPLGALVVTTPQAVSVGDVRRELTFCRKTGLRVMGIVENMSGFTCPHCTECTSVFSRGGGEELAQLAGVPFLGSVPLDPALMRTLEEGHDFIQEFPGSPAFAALTSIAQKILDATPACLP [NUBP2],1.32 ± 0.035
11,MEDAAAPGRTEGVLERQGAPPAAGQGGALVELTPTPGGLALVSPYHTHRAGDPLDLVALAEQVQKADEFIRANATNKLTVIAEQIQHLQEQARKVLEDAHRDANLHHVACNIVKKPGNIYYLYKRESGQQYFSIISPKEWGTSCPHDFLGAYKLQHDLSWTPYEDIEKQDAKISMMDTLLSQSVALPPCTEPNFQGLTH [C1orf50],1.17
12,MEDCCMLPYYTAQSSPAMGMFNTSMGKLQRQLYKGEYTIFRYAPMFESDFIQISKRGEVIDVHNRARMVTMGIVRTSPCLTLPDVMLLARPAAVCDNARCGPATQKRESPPAEILELTRLLPLMFVKITIHNSVKKQLHLKLATGRSFYLQLCPPSDASEDLFVHWENLVYILRPPVEAYSDTRAILAGNTLDSSVLEEVQRSPVGYAMKFCEEKEQFRISRLHMNAEMFGSTYCDYTIEI [FAM71C],1
13,MEDFATRTYGTSGLDNRPLFGETSAKDRIINLVVGSLTSLLILVTLISAFVFPQLPPKPLNIFFAVCISLSSITACILIYWYRQGDLEPKFRKLIYYIIFSIIMLCICANLYFHDVGR [C7orf23],1.23
14,MEDKRSLSMARCEERNSRGQDHGLERVPFPPQLQSETYLHPADPSPAWDDPGSTGSPNLRLLTEEIAFQPLAEEASFRRPHPDGDVPPQGEDNLLSLPFPQKLWRLVSSNQFSSIWWDDSGACRVINQKLFEKEILKRDVAHKVFATTSIKSFFRQLNLYGFRKRRQCTFRTFTRIFSAKRLVSILNKLEFYCHPYFQRDSPHLLVRMKRRVGVKSAPRHQEEDKPEAAGSCLAPADTEQQDHTSPNENDQVTPQHREPAGPNTQIRSGSAPPATPVMVPDSAVASDNSPVTQPAGEWSEGSQAHVTPVAAVPGPAALPFLYVPGSPTQMNSYGPVVALPTASRSTLAMDTTGLPAPGMLPFCHLWVPVTLVAAGAAQPAASMVMFPHLPALHHHCPHSHRTSQYMPASDGPQAYPDYADQST [HSFX1],1.32
15,MEGESTSAVLSGFVLGALAFQHLNTDSDTEGFLLGEVKGEAKNSITDSQMDDVEVVYTIDIQKYIPCYQLFSFYNSSGEVNEQALKKILSNVKKNVVGWYKFRRHSDQIMTFRERLLHKNLQEHFSNQDLVFLLLTPSIITESCSTHRLEHSLYKPQKGLFHRVPLVVANLGMSEQLGYKTVSGSCMSTGFSRAVQTHSSKFFEEDGSLKEVHKINEMYASLQEELKSICKKVEDSEQAVDKLVKDVNRLKREIEKRRGAQIQAAREKNIQKDPQENIFLCQALRTFFPNSEFLHSCVMSLKNRHVSKSSCNYNHHLDVVDNLTLMVEHTDIPEASPASTPQIIKHKALDLDDRWQFKRSRLLDTQDKRSKADTGSSNQDKASKMSSPETDEEIEKMKGFGEYSRSPTF [CCDC98],1.12
16,MEGTVESQTPDLRDVEGKVGRKTPEGLLRGLRGECELGTSGALLLPGASSTGHDLGDKIMALKMELAYLRAIDVKILQQLVTLNEGIEAVRWLLEERGTLTSHCSSLTSSQYSLTGGSPGRSRRGSWDSLPDTSTTDRLDSVSIGSFLDTVAPSELDEQGPPGAPRSEMDWAKVIAGGERARTEVDVAATRLGSLRAVWKPPGERLQGGPPESPEDESAKLGFEAHWFWEQCQDDVTFL [C1orf190],2.55

# Source: the supplement of paper PMC2577665
